Data published in patent publication US12239636B2, “Combined sirolimus and nintedanib therapy for vascular lesions and hereditary hemorrhagic telangiectasia” (THE FEINSTEIN INSTITUTES FOR MEDICAL RESEARCH, priority 2018, dated 2025).
For at least one compound, name, drawing or mass did not settle the structure.

System: tBMP9/10ib mice
Assay: Prevention of retinal vascular pathology in tBMP9/10ib HHT mice (treatment P3-P5, analysis at P6)
[1] = tBMP9/10ib retinas at P6, Siro 0.5 mg/kg i.p. P3-P5, Nin 0.3 mg/kg i.p. at P5

CO[C@H]1C[C@@H]2CC[C@@H](C)[C@@](O)(O2)C(=O)C(=O)N2CCCC[C@H]2C(=O)O[C@H]([C@H](C)C[C@@H]2CC[C@@H](O)[C@H](OC)C2)CC(=O)[C@H](C)/C=C(\C)[C@@H](O)[C@@H](OC)C(=O)[C@H](C)C[C@H](C)/C=C/C=C/C=C/1C [Siro, sirolimus]
vascular pathology (HHT mice, sirolimus 0.5 mg/kg/day, nintedanib 0.3 mg/kg/day, alone or combined): moderate-to-negligible effect
AVM diameter [1]: significantly reduced
increase in density of the vascular plexus [1]: prevented
vein dilation [1]: prevented
